Test results: US20070274981A1
No constants are given. Whether binding was seen depends on the method and setting. Some results given as binding are weak or reduced against the parent protein; the word gives no strength. Blank lines part the entries; values can stand above or below the binder they belong to.

Protein sequences, listed by entry. Tags and fused reporters are not part of them. Lines headed by an entry give the natural chain unless they say otherwise; changes in a name come on top. Chains listed by the source or under a name are the forms on record and can include a tag or linker.
Recombinant FGFR-1(IIIb) (P11362, form named): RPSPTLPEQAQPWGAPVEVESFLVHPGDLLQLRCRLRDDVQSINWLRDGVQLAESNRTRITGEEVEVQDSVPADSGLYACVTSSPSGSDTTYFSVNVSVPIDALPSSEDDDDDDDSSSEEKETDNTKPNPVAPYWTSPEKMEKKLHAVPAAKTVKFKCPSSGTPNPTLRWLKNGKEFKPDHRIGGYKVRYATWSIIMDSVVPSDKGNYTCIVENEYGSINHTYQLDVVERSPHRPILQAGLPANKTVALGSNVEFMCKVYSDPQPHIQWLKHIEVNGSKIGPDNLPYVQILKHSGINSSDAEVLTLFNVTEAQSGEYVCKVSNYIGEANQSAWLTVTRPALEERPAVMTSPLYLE

Columns and labels:
Recombinant FGFR-4 [1] = molecular target: T1, Recombinant FGFR-4 (UniProt P22455); test: ELISA binding assay, receptor coated
T1 sequence (looked up): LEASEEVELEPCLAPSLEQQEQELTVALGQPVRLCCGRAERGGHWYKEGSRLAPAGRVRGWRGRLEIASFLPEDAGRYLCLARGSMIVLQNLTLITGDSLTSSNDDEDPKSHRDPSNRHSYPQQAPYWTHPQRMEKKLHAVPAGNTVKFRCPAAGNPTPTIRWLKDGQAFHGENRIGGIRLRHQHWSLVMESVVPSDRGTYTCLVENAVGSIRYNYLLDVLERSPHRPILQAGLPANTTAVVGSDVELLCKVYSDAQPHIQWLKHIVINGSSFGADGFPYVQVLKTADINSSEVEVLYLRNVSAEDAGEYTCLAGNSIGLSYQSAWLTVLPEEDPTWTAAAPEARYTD

Recombinant FGFR-4 [2] = molecular target: T1, Recombinant FGFR-4; test: summary of the binding experiments
Recombinant FGFR-1(IIIb) [3] = molecular target: Recombinant FGFR-1(IIIb) (UniProt P11362); test: ELISA binding assay, receptor coated
Recombinant FGFR-1(IIIb) [4] = molecular target: Recombinant FGFR-1(IIIb) (UniProt P11362); test: summary of the binding experiments

binding (Recombinant FGFR-4 [1]): binds
binding (Recombinant FGFR-4 [2]): binds
B1: FR1-A1 (antibody, V domains shown)
VH: QVQLVQSGAEVKKPGSSVKVSCKASGQTFTGYYMHWVRQAPGQGLEWMGRIIPILGIANYAQKFQGRVTITADKSTSTAYMELSSLRSEDTAVYYCARGGDLGGMDVWGQG
VL: EIVLTQSPLSLPVTPGEPASISCRSSQSLRHSNGYNYLDWYLQKPGQSPQLLIYLASNRASGVPDRFSGSGSGTDFTLKISRVEAEDVGVYYCMQALQIPPTFGPGTKVDIKR

binding (Recombinant FGFR-1(IIIb) [3]): binds
binding (Recombinant FGFR-4 [2]): binds
binding (Recombinant FGFR-1(IIIb) [4]): binds
B2: FR1-H7 (antibody, V domains shown)
VH: EVQLVQSGAEVKKPGASVKVSCKVSGYTFTDYYMHWVQQAPGKGLEWMGLVDPEDGETIYAEKFQGRVTITADTSTDTAYMELSSLRSEDTAVYYCARDDYMDVWGKGTLVTVSS
VL: ETTLTQSPDTLSLSPGEGATLSCRASQSVSGSALAWYQQKPGQAPRLLIYDASSRATGVPDRFSGSGSGADFSLTISRLEPEDFAVYSCQQYGSSPLTFGPGTKVDVKR
